According to US20240293418A1, “COMBINATION THERAPY FOR TREATING CANCER” (Epizyme, Inc., priority 2016, published 2024):

Legend:
Assay in all cases: 7 day pretreatment + 4-day co-treatment combination model (Cell Titer Glo)
[1] = test system: KMS-28-BM; details: 96 h, read-out: 4-day IC50
[2] = test system: L-363; details: Homo sapiens, L-363, 96 h, read-out: 4-day IC50
[3] = test system: MM1.S; details: Homo sapiens, 96 h, read-out: 4-day IC50
[4] = test system: U266; details: Homo sapiens, U-266, 96 h, read-out: 4-day IC50

IC50 [3]: 720 nM
IC50 [4]: 1000 nM
Compound: O=C(CCCCCCC(=O)Nc1ccccc1)NO [Vorinostat, vorinostat]
IC50 [1]: 394 nM
IC50 [2]: 563 nM
